# Data taken from PubChem BioAssay AID504834 (National Center for Advancing Translational Sciences (NCATS), 2011).
# The campaign covered roughly 320,000 compounds. About 22,000 (6.9%) were called active. Inconclusive results, whose numbers are uncertain, are shown with a selection of clear calls. The call rests on the fitted dose curve; in most records, active means well fitted inhibition curve with a large enough effect; inconclusive means small, poorly fitted or top-dose-only effect, or another doubt; inactive means no such curve, though single readings can be large or run the other way. Potencies beside an inconclusive call are fits to weak or partial responses and may not hold up.
# Assay: Primary qHTS for delayed death inhibitors of the malarial parasite plastid, 96 hour incubation
# Conditions: P. falciparum luciferase reporter growth; series mostly up to 28.7 µM; activity change, negative = inhibition: at the top concentration
# Summary of the method: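 Plates of compound plus infected erythrocytes (2% hematocrit, 0.05% parasitemia final) incubate 96 hours, 37 C, 5% CO2. Detection reagent added; reduced luminescence from the parasites' luciferase reporter flags inhibition.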
# On the % scale 0 is the no-effect control and ±100 the full control effect; potency means the concentration at half of the fitted maximal effect.
SMILES,"activity change, negative = inhibition",Potency
COC(=O)c1cc(C(=O)OC)cc(N2C(=O)CN=C2Nc2nc(C)cc(C)n2)c1,inactive: 81.8%,
CC(=O)Nc1ccc(NC(=O)C2CC(=O)N(c3cccc(Cl)c3)C2)cc1 (stereo unspecified),,"inconclusive: 9.28 µM [inhibitor, partial curve, poor fit]"
O=C(NCc1n[nH]c(=S)n1-c1ccc(Br)cc1)c1ccc(S(=O)(=O)N2CCOCC2)cc1,,"inconclusive: 1.85 µM [inhibitor, full curve, poor fit]"
CC(C)(C)c1ccc(NC(=O)c2ccc(=O)[nH]n2)cc1,inactive: 422%,
CCS(=O)(=O)N1CCC(C(=O)NCCc2ccc(C)cc2)CC1,,"inconclusive: 18.5 µM [inhibitor, single point]"
CCOc1ccccc1CNS(=O)(=O)c1ccc2c(c1)oc(=O)n2C,,"inconclusive: 3.29 µM [inhibitor, partial curve, poor fit]"
O=C1CC(N2CCSCC2)C(=O)N1c1cccc(Cl)c1 (stereo unspecified),,"inconclusive: 8.28 µM [inhibitor, partial curve, poor fit]"
C/C(CC(=O)NC1CCCCC1)=N\NC(=O)c1ccccc1C,,"inconclusive: 1.47 µM [inhibitor, partial curve, poor fit]"
Cc1ccc(OCC(=O)NNC(=O)CSc2nnc(-c3ccc(C)cc3)n2C)cc1,,"inconclusive: 10.4 µM [inhibitor, single point]"
Cc1cccc(C)c1OCC(=O)Nc1ccc(N2CCOCC2)cc1,,active: 1.47 µM
Cc1ccc(SCc2nc3ccccc3n2CC(=O)Nc2ccccc2)cc1,,"inconclusive: 11.7 µM [inhibitor, single point]"
CCCCOC(=O)CSc1nc(N)c(C#N)c(-c2ccc(OCC)cc2)c1C#N,inactive: 1.28% [at 5.75 µM],
Cc1cc(C)nc(SC2c3cccc4cccc(c34)C2NS(=O)(=O)c2ccccc2)n1 (stereo unspecified),,"inconclusive: 13.1 µM [inhibitor, single point]"
CC(C)C(C)(C#N)NC(=O)CSc1nc(C2CCCCC2)n(-c2ccccc2)n1 (stereo unspecified),,"inconclusive: 18.5 µM [inhibitor, single point]"
Cc1ccc(C(=O)/C=C\C(=O)c2ccc(C)cc2)cc1,inactive: -9.42%,
COc1cccc(N2C(=O)[C@H]3C(C(=O)c4cnccn4)=NN[C@H]3C2=O)c1,inactive: 33.3%,
C=CCN(CC=C)C(=O)C(=O)c1cc(C)n(-c2ccc([N+](=O)[O-])cc2)c1C,,"inconclusive: 20.8 µM [inhibitor, partial curve, poor fit]"
O=C(c1ccco1)N1CCN(C(=O)C23CC4CC(CC(C4)C2)C3)CC1,,"inconclusive: 16.5 µM [inhibitor, single point]"
COc1ccc(C2OC(=O)CC2C(=O)NCc2ccc(F)cc2)cc1OC (stereo unspecified),inactive: 24.6%,
CCCCN(C)C(=O)c1nc2ccccn2c1CN1CCN(c2ccccn2)CC1,,"inconclusive: 9.28 µM [inhibitor, single point]"
Cc1ccc(SCCC(=O)Nc2c(C)n(C)n(-c3ccccc3)c2=O)cc1,inactive: 37.3%,
COc1ccc(NS(=O)(=O)c2ccc(N3C(=O)CCC3=O)cc2)cc1,,"inconclusive: 18.5 µM [inhibitor, single point]"
COc1ccc(Nc2nc(C)cc(C)c2C(N)=O)cc1OC,,"inconclusive: 18.5 µM [inhibitor, single point]"
O=C(CSc1nnc(-c2cccs2)o1)Nc1cccc(S(=O)(=O)N2CCCCC2)c1,,active: 14.7 µM

# Given as tab-separated lines: 2 of the compounds above.
SMILES	activity change, negative = inhibition	Potency
COc1ccc(C2OC(=O)CC2C(=O)NCc2ccc(F)cc2)cc1OC (stereo unspecified)	inactive: 24.6%	
O=C(CSc1nnc(-c2cccs2)o1)Nc1cccc(S(=O)(=O)N2CCCCC2)c1		active: 14.7 µM

# Next part:

SMILES,"activity change, negative = inhibition",Potency
Cc1ccc(SC(CC(=O)c2ccc(F)cc2)C(=O)O)cc1 (stereo unspecified),,"inconclusive: 18.5 µM [inhibitor, single point]"
Cc1ccc(Cl)cc1NC(=O)c1cc(S(=O)(=O)N2CCOCC2)cn1C,,"inconclusive: 18.5 µM [inhibitor, single point]"
O=C1NCC(O)=C1C=NCCCO,,"inconclusive: 3.7 µM [inhibitor, full curve]"
COc1ccc(Cc2nnc(N=Nc3c(O)[nH]c4ccc(Br)cc34)[nH]c2=O)cc1,,"inconclusive: 11.7 µM [inhibitor, single point]"
COC(=O)Cc1csc(Nc2ccccc2)n1,,"inconclusive: 0.104 µM [inhibitor, full curve]"
Cc1ccc(-c2c(C)n([O-])c3c([n+]2=O)CCCC3)o1,inactive: -9.86%,
O=C(CCS(=O)(=O)c1cccc2nsnc12)NCc1ccccc1,,"inconclusive: 18.5 µM [inhibitor, single point]"
Cc1nnc(SCC(=O)NC(C)(C)C)n1NCc1ccc(Cl)cc1,inactive: -1.36%,
S=C(NCc1ccccc1)NNc1nc2ccccc2[nH]1,,"inconclusive: 16.5 µM [inhibitor, partial curve, poor fit]"
CCN1C(=O)/C(=C/N(C)c2ccccc2)OC1=S,inactive: -6.38%,
COC(=O)c1sccc1NC(=S)N1CCN(c2cccc(C)c2C)CC1,inactive: 74.5%,
C/C(=N/NS(=O)(=O)c1ccc(CC(C)C)cc1)c1ccncc1,inactive: -28.7%,
Cc1ccc(NC(=O)C2=C(C(=O)O)CCCC2)cc1F,inactive: -26.9%,
O=C(COC(=O)CNC(=O)c1ccco1)NCCN1C(=O)CSC1=O,inactive: -13.8%,
CCCCCCNC(=O)N1C/C=C\C(c2ccc(OC)cc2)N(Cc2ccc(F)cc2)C(=O)C1 (stereo unspecified),,"inconclusive: 18.5 µM [inhibitor, single point]"
O=C(Cn1ccc(NC(=O)OCc2ccccc2)nc1=O)NCCc1c[nH]c2ccccc12,,"inconclusive: 11.7 µM [inhibitor, single point]"
CC(C)=CC(=O)N1CC[C@@H](N2CCN(c3ccccc3F)CC2)[C@H](O)C1,,"inconclusive: 18.5 µM [inhibitor, single point]"
Cc1ccc(SCC(=O)c2c(C)nc3ccccn23)cc1,inactive: 87.5%,
COc1ccc(C(=O)OCc2ccccc2F)cc1S(=O)(=O)N1CCCC1,,active: 13.1 µM
O=C(Nc1cccc(Cl)c1Cl)c1ccccc1NC(=O)C1CC=CCC1C(=O)O (stereo unspecified),,active: 14.7 µM
Fc1cccc(/C=N/NC(=S)Nc2ccccc2Cl)c1,inactive: 221%,
CC(/C=C1\SC(=O)N(CC(=O)Nc2cccc(O)c2)C1=O)=C\c1ccccc1,,"inconclusive: 18.5 µM [inhibitor, single point]"
Cc1ccc2c(CC(=O)N(CC3CCCO3)c3c(N)n(Cc4ccccc4)c(=O)[nH]c3=O)coc2c1 (stereo unspecified),,"inconclusive: 18.5 µM [inhibitor, partial curve, poor fit]"
COc1cc(C=C2C(=O)OC(C)(C)OC2=O)ccc1OCC(=O)Nc1ccccc1,,"inconclusive: 16.5 µM [inhibitor, partial curve, poor fit]"

SMILES,"activity change, negative = inhibition",Potency
O=C(NNC(=O)c1ccc(NC(=O)c2ccccc2)cc1)Nc1ccccc1,,"inconclusive: 18.5 µM [inhibitor, single point]"
CC(C)(C)c1ccc(C(=O)Nn2cnnc2)cc1,inactive: -27%,
COc1cc2c(cc1OC)C(c1cccc([N+](=O)[O-])c1)NC(=O)C2 (stereo unspecified),,active: 6.57 µM
O=C(NCC1OCCc2ccccc21)c1cc(COc2ccc(F)cc2Cl)on1 (stereo unspecified),,"inconclusive: 8.28 µM [inhibitor, partial curve, poor fit]"
COc1ccc(C(=O)c2sc3nc(-c4ccccc4)ccc3c2N)cc1,inactive: -20.4%,
Cc1cccc(-n2nc3c(c2NC(=O)c2ccc(Br)o2)CSC3)c1C,,"inconclusive: 14.7 µM [inhibitor, single point]"
O=C1C2=C(C(=O)c3ccccc31)C1O[C@](CCCCN3C(=O)c4ccccc4C3=O)(Cc3ccccc31)O2,,"inconclusive: 1.69 µM [inhibitor, single point]"
COC(=O)Nc1ccc(S(=O)(=O)N2CCCC(C(=O)N3CC(C)OC(C)C3)C2)cc1 (stereo unspecified),inactive: 0.843%,
FC(F)c1nc2ccccc2[nH]1,inactive: 174%,
Cc1ccccc1NC(=S)NC(=O)CCc1ccccc1,,"inconclusive: 18.5 µM [inhibitor, single point]"
Cc1ccc(S(=O)(=O)N(C)CC(=O)Nc2cccc3c2CCCC3)cc1,,"inconclusive: 10.4 µM [inhibitor, single point]"
Cc1cc(NC(=O)CSc2nc(C(C)C)nc3c2c(=O)n(C)c(=O)n3C)no1,,"inconclusive: 10.4 µM [inhibitor, single point]"
O=C(NCCN1CCCC1)C1CC(=O)N(C2CCCCC2)C1 (stereo unspecified),,active: 13.1 µM
CCc1cc(=O)oc2cc(C)cc(OCC(=O)NC3CC3)c12,,"inconclusive: 18.5 µM [inhibitor, single point]"
COC(=O)Nc1ccc(S(=O)(=O)NNC(=O)c2c(O)c3ccccc3n(C)c2=O)cc1,inactive: 11%,
COc1ccc2c(Cl)c(C(=O)N/N=C/c3ccc4c(c3)OCO4)sc2c1,,"inconclusive: 0.657 µM [inhibitor, full curve, poor fit]"
CCOC(=O)NC(=O)/C(C#N)=C\c1ccccc1,,"inconclusive: 13.1 µM [inhibitor, partial curve]"
Cc1cc(C)n2ncc(C(=O)NC3CCCCC3)c2n1,,"inconclusive: 18.5 µM [inhibitor, single point]"
O=S(=O)(Nc1nc2ccccc2[nH]1)c1ccccc1,,"inconclusive: 11.7 µM [inhibitor, partial curve]"
CCOc1ccc(S(=O)(=O)N2CCCCCC2)cc1,,"inconclusive: 11.7 µM [inhibitor, partial curve, poor fit]"
CCOC(=O)c1ccccc1NS(=O)(=O)c1ccc(OCC)cc1,,active: 9.28 µM
COCCOc1ccc(C(F)(F)F)cc1NC(=O)c1ccc(C(F)(F)F)cc1,,"inconclusive: 16.5 µM [inhibitor, single point]"
O=C(c1ccco1)N1CCN(C(=O)c2ccc(CS(=O)c3cccc(Cl)c3)o2)CC1 (stereo unspecified),,"inconclusive: 10.4 µM [inhibitor, single point]"

# Of the compounds above, these have a tert-butyl group:
SMILES,"activity change, negative = inhibition",Potency
CC(C)(C)c1ccc(NC(=O)c2ccc(=O)[nH]n2)cc1,inactive: 422%,
Cc1nnc(SCC(=O)NC(C)(C)C)n1NCc1ccc(Cl)cc1,inactive: -1.36%,
CC(C)(C)c1ccc(C(=O)Nn2cnnc2)cc1,inactive: -27%,
